# The whole screen tested about 320,000 compounds, of which about 22,000 (6.9%) were called active. Inconclusive means that the source gave no clear call. Such entries were picked first, then a sample of the others. Calls follow the shape of the dose curve; as a rule, active = well fitted inhibition curve with a large enough effect; inconclusive = small, poorly fitted or top-dose-only effect, or another doubt; inactive = no such curve, though single readings can be large or run the other way. Potencies of inconclusive entries are doubtful fits and often do not repeat.
# Assay: Primary qHTS for delayed death inhibitors of the malarial parasite plastid, 96 hour incubation
# Settings: P. falciparum luciferase reporter growth; series mostly up to 28.7 µM; activity change, negative = inhibition: at the top concentration
# How it was run: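 Plates of compound plus infected erythrocytes (2% hematocrit, 0.05% parasitemia final) incubate 96 hours, 37 C, 5% CO2. Detection reagent added; reduced luminescence from the parasites' luciferase reporter flags inhibition.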
# % is scaled to controls: 0 for no effect and ±100 for the full control effect; potency is read from the fitted curve at half-maximal effect.
Compound,"activity change, negative = inhibition",Potency
CCC(=O)c1ccc(OCC(=O)OCC(=O)NC2CCCCCCC2)cc1,inactive: 20.9%,–
Cc1cc(C)cc(NC(=O)N2CCC(NC(=O)c3ccc(F)cc3)CC2)c1,–,"inconclusive: 0.37 µM [inhibitor, partial curve]"
Cc1ccc2nc(N(CCCN(C)C)C(=O)c3ccc(Br)s3)sc2c1,–,"inconclusive: 10.4 µM [inhibitor, single point]"
c1ccn2c(CNc3ncnc4sccc34)nnc2c1,–,"inconclusive: 11.7 µM [inhibitor, partial curve, poor fit]"
CN1CCCC(=C(c2cccs2)c2cccs2)C1,–,"inconclusive: 0.104 µM [inhibitor, full curve, poor fit]"
CCOc1ccc(NC(=O)CCNC(=O)Cn2cnc3ccccc3c2=O)cc1,inactive: 4.68%,–
CCOC(=O)c1oc2ccccc2c1CSc1nnnn1-c1ccc(C)cc1,–,"inconclusive: 10.4 µM [inhibitor, single point]"
O=C(CCc1c[nH]c2ccccc12)NCC1CCCO1 (stereo unspecified),inactive: 31.8%,–
O=C(c1cnn2c(C(F)F)cc(-c3ccccc3)nc12)N1CCc2ccccc21,–,"inconclusive: 4.15 µM [inhibitor, single point]"
Cc1ccccc1NC(=O)c1cccc(NC(=O)CCC(=O)O)c1,–,"inconclusive: 0.0083 µM [inhibitor, full curve, poor fit]"
COc1ccc(C(=O)N2CCN(c3cnn(-c4ccccc4)c(=O)c3Cl)CC2)cc1,–,"inconclusive: 2.08 µM [inhibitor, full curve, poor fit]"
COc1ccc(-c2nnc(SCc3ccc(C(=O)O)cc3)o2)cc1OC,–,"inconclusive: 18.5 µM [inhibitor, single point]"
CCCOP(=O)(OCCC)C1(Nc2ccc(C)cc2)CCCCC1,–,"inconclusive: 11.7 µM [inhibitor, single point]"
COc1ccc(C2=Nc3ccc(Br)cc3C(c3ccccc3)N2CC(=O)NN)cc1 (stereo unspecified),inactive: 0.375%,–
COc1cccc(CN(CC2CCCO2)S(=O)(=O)c2ccc(-n3cnnn3)c(OC)c2)c1 (stereo unspecified),inactive: 10.8%,–
Cc1cccc(/C=N/NC(=O)c2ccccc2OCc2cccc(Br)c2)n1,–,"inconclusive: 9.28 µM [inhibitor, partial curve, poor fit]"
COc1ccnc(Oc2ccccc2)c1C(=O)N/C=N/OCc1ccccc1F,inactive: -13.2%,–
Cc1ccc2nc(SCC(=O)Nc3cc(C)on3)c(C)cc2c1,–,"inconclusive: 11.7 µM [inhibitor, partial curve]"
Cn1c(-c2ccccc2)c(C(=O)CC#N)c2ccccc21,–,"inconclusive: 14.7 µM [inhibitor, partial curve, poor fit]"
COc1ccc(CNC(=O)c2coc(=O)c3ccccc23)cc1,–,"inconclusive: 9.28 µM [inhibitor, single point]"
COC(=O)c1ccc(/C=C/c2c(-c3ccsc3)sc3ccccc23)cc1,–,"inconclusive: 11.7 µM [inhibitor, single point]"
O=C1c2cccc3cc([N+](=O)[O-])cc(c23)C(=O)N1CC1CCCO1 (stereo unspecified),–,"inconclusive: 14.7 µM [inhibitor, single point]"
CCN(CC)c1ccc(NC(=O)c2cncc(Br)c2)cc1,inactive: 4.75%,–
O=C(COC(=O)CSc1cc(Cl)ccc1Cl)NCc1ccc2c(c1)OCO2,–,"inconclusive: 11.7 µM [inhibitor, partial curve, poor fit]"

# 22 of the compounds above, as tab-separated lines.
Compound	activity change, negative = inhibition	Potency
CCC(=O)c1ccc(OCC(=O)OCC(=O)NC2CCCCCCC2)cc1	inactive: 20.9%	–
Cc1cc(C)cc(NC(=O)N2CCC(NC(=O)c3ccc(F)cc3)CC2)c1	–	inconclusive: 0.37 µM [inhibitor, partial curve]
Cc1ccc2nc(N(CCCN(C)C)C(=O)c3ccc(Br)s3)sc2c1	–	inconclusive: 10.4 µM [inhibitor, single point]
CN1CCCC(=C(c2cccs2)c2cccs2)C1	–	inconclusive: 0.104 µM [inhibitor, full curve, poor fit]
CCOC(=O)c1oc2ccccc2c1CSc1nnnn1-c1ccc(C)cc1	–	inconclusive: 10.4 µM [inhibitor, single point]
O=C(CCc1c[nH]c2ccccc12)NCC1CCCO1 (stereo unspecified)	inactive: 31.8%	–
O=C(c1cnn2c(C(F)F)cc(-c3ccccc3)nc12)N1CCc2ccccc21	–	inconclusive: 4.15 µM [inhibitor, single point]
Cc1ccccc1NC(=O)c1cccc(NC(=O)CCC(=O)O)c1	–	inconclusive: 0.0083 µM [inhibitor, full curve, poor fit]
COc1ccc(C(=O)N2CCN(c3cnn(-c4ccccc4)c(=O)c3Cl)CC2)cc1	–	inconclusive: 2.08 µM [inhibitor, full curve, poor fit]
COc1ccc(-c2nnc(SCc3ccc(C(=O)O)cc3)o2)cc1OC	–	inconclusive: 18.5 µM [inhibitor, single point]
CCCOP(=O)(OCCC)C1(Nc2ccc(C)cc2)CCCCC1	–	inconclusive: 11.7 µM [inhibitor, single point]
COc1ccc(C2=Nc3ccc(Br)cc3C(c3ccccc3)N2CC(=O)NN)cc1 (stereo unspecified)	inactive: 0.375%	–
COc1cccc(CN(CC2CCCO2)S(=O)(=O)c2ccc(-n3cnnn3)c(OC)c2)c1 (stereo unspecified)	inactive: 10.8%	–
Cc1cccc(/C=N/NC(=O)c2ccccc2OCc2cccc(Br)c2)n1	–	inconclusive: 9.28 µM [inhibitor, partial curve, poor fit]
COc1ccnc(Oc2ccccc2)c1C(=O)N/C=N/OCc1ccccc1F	inactive: -13.2%	–
Cc1ccc2nc(SCC(=O)Nc3cc(C)on3)c(C)cc2c1	–	inconclusive: 11.7 µM [inhibitor, partial curve]
Cn1c(-c2ccccc2)c(C(=O)CC#N)c2ccccc21	–	inconclusive: 14.7 µM [inhibitor, partial curve, poor fit]
COc1ccc(CNC(=O)c2coc(=O)c3ccccc23)cc1	–	inconclusive: 9.28 µM [inhibitor, single point]
COC(=O)c1ccc(/C=C/c2c(-c3ccsc3)sc3ccccc23)cc1	–	inconclusive: 11.7 µM [inhibitor, single point]
O=C1c2cccc3cc([N+](=O)[O-])cc(c23)C(=O)N1CC1CCCO1 (stereo unspecified)	–	inconclusive: 14.7 µM [inhibitor, single point]
CCN(CC)c1ccc(NC(=O)c2cncc(Br)c2)cc1	inactive: 4.75%	–
O=C(COC(=O)CSc1cc(Cl)ccc1Cl)NCc1ccc2c(c1)OCO2	–	inconclusive: 11.7 µM [inhibitor, partial curve, poor fit]

# Additional compounds follow.

Compound,"activity change, negative = inhibition",Potency
O=C(CSc1nnc(-c2ccncc2)o1)N1CCCC1,inactive: -15%,–
CC(C)OCCCNC(=O)c1c(N)n(/N=C/c2cccs2)c2nc3ccccc3nc12,–,"inconclusive: 14.7 µM [inhibitor, partial curve, poor fit]"
CC1=Nc2cc(C(=O)N3CCCC3)ccc2Sc2ccc(C)cc21,–,"inconclusive: 1.65 µM [inhibitor, full curve]"
CCN(CC)CC(=O)N1c2ccccc2CCc2ccc(NC(=O)c3cc(OC)c(OC)c(OC)c3)cc21,–,active: 9.28 µM
c1ccc(SCc2cn3cccnc3n2)nc1,inactive: -23.1%,–
CCOc1ccc(-c2cc(N)n(S(=O)(=O)c3ccc(OC)c(OC)c3)n2)cc1,–,"inconclusive: 5.22 µM [inhibitor, partial curve, poor fit]"
CCOP(=O)(OCC)C1NC(=O)N(c2ccccc2)C1=O (stereo unspecified),–,"inconclusive: 18.5 µM [inhibitor, single point]"
CSc1nc(-c2ccc(Cl)cc2)nn1S(=O)(=O)c1ccc(Cl)cc1,inactive: -10.4%,–
Cc1ccc(SCC(=O)N2CC(C)OC(C)C2)cc1 (stereo unspecified),inactive: 17%,–
Clc1ccc(CSc2nnc([C@@H]3CCCN3)o2)cc1Cl,–,"inconclusive: 11.7 µM [inhibitor, single point]"
N#CCCN1CCCc2cc(N=Nc3ccc(C(F)(F)F)cc3)ccc21,inactive: -24.5%,–
CCOC(=O)c1ccc2c(c1)sc(=NC(=O)c1ccco1)n2CCOC,inactive: 1.98%,–
CC1Cc2c([nH]c3ccccc23)C(=O)N1 (stereo unspecified),–,active: 9.28 µM
NC(=O)COC(=O)c1ccc2noc(-c3ccccc3)c2c1,inactive: 77.9%,–
Oc1cccc(C(=S)N2CCCCC2)c1,–,"inconclusive: 18.5 µM [inhibitor, single point]"
O=C(/C=C/c1ccco1)NC(=S)Nc1cc(C(F)(F)F)ccc1N1CCOCC1,–,"inconclusive: 18.5 µM [inhibitor, single point]"
COc1ccccc1CN(C)C(=O)C(NC(=O)Cc1cccc2ccccc12)C(C)C (stereo unspecified),–,"inconclusive: 6.57 µM [inhibitor, partial curve]"
O=C(c1ccc(S(=O)(=O)Nc2ccccc2)cc1)N1CCCCCCC1,–,"inconclusive: 13.1 µM [inhibitor, single point]"
COc1ccc(OC)c(NC(=O)N[C@H](Cc2ccccc2)C(=O)NN)c1,–,"inconclusive: 18.5 µM [inhibitor, single point]"
C=CCNC(=O)c1cnn(-c2ccccc2)c1-c1ccccc1,–,"inconclusive: 2.08 µM [inhibitor, partial curve, poor fit]"
COCCCN1CC(=O)N2C(c3cccc(OC)c3OC)c3[nH]c4ccccc4c3C[C@H]2C1=O (stereo partly specified),–,active: 11.7 µM
CCn1nc(C(=O)OCC(=O)N2CC(=O)Nc3ccccc32)c2ccccc2c1=O,inactive: 9.3%,–
C#CCOCCOCCOCCNc1nc(N2CCOCC2)nc(N2CCN(C(=O)[C@H]([C@@H](C)CC)n3cc(CCCN=C(N)N)nn3)CC2)n1,–,"inconclusive: 18.5 µM [inhibitor, single point]"
Cc1cc(C)nc(SCc2ccc(C(=O)N/N=C/c3ccco3)cc2)n1,–,"inconclusive: 10.4 µM [inhibitor, partial curve, poor fit]"

Compound,"activity change, negative = inhibition",Potency
CCCCc1n[nH]c2c1C(=O)CC(C)(C)C2,inactive: -9.43%,–
Cn1cc(/C=N/n2cnc3scc(-c4ccccc4)c3c2=O)c2ccccc21,–,active: 3.29 µM
CCN[C@@H]1C[C@H](N)[C@H](O[C@H]2OC(CN)=CC[C@H]2N)[C@@H](O)[C@H]1O[C@H]1OC[C@@](C)(O)[C@@H](NC)[C@@H]1O,inactive: 2.72%,–
COc1ccc(NC(=O)Cc2c(SC)c3ccccc3n2Cc2ccccc2)cc1,–,active: 7.38 µM
CCC(=O)OCC(=O)N=c1sccn1Cc1ccccc1Cl,–,"inconclusive: 14.7 µM [inhibitor, partial curve, poor fit]"
CCN1CCN(CCCNC(=O)c2cc3c(=O)oc4ccc(C)cc4c3s2)CC1,–,"inconclusive: 18.5 µM [inhibitor, single point]"
CC1CCc2sc(C(=O)NC3CCN(Cc4ccccc4)CC3)cc2C1 (stereo unspecified),–,active: 6.57 µM
CCCCC(c1nnnn1CCOC)N1CCN(Cc2ccccc2)CC1 (stereo unspecified),inactive: 13.4%,–
O=C(NCc1ccccc1)c1cccc(S(=O)(=O)N2CCCCC2)c1,inactive: 26.2%,–
O=C1NC(Cc2c[nH]c3ccccc23)C(=O)N1Cc1ccc(CN2C(=O)NC(Cc3c[nH]c4ccccc34)C2=O)cc1 (stereo unspecified),inactive: -19%,–
COc1ccccc1NC(=O)Nc1nc(CC(=O)Nc2cccc(F)c2)cs1,–,active: 2.08 µM
COc1ccc(C(=O)/C=C/Nc2ccc([N+](=O)[O-])cc2C)cc1OC,inactive: 0%,–
CN(C)C1=C(C#N)C(c2ccccc2)=NP(N(C)C)(N(C)C)=N1,–,"inconclusive: 9.28 µM [inhibitor, single point]"
Cc1cc(=O)n(CC(=O)O)c2ccccc12,–,"inconclusive: 16.5 µM [inhibitor, single point]"
CC(C)C(=O)N1c2ccccc2NC2=C(C(=O)CCC2)C1c1ccc(N(C)C)cc1 (stereo unspecified),–,active: 2.33 µM
Cc1ccccc1C(=O)N/N=C/c1cccc2ccccc12,–,"inconclusive: 18.5 µM [inhibitor, single point]"
Cc1nccn1CCN(C)Cc1cn(Cc2ccccc2)nc1-c1ccc2c(c1)OCO2,–,"inconclusive: 1.47 µM [inhibitor, full curve, poor fit]"
CC1CC(C)CN(C(=O)c2ccc(N3CC4CC(C3)c3cccc(=O)n3C4)c([N+](=O)[O-])c2)C1 (stereo unspecified),–,"inconclusive: 10.4 µM [inhibitor, single point]"
CCOC(=O)C1=C(CN2CCCCCC2)NC(=O)NC1c1ccc2c(c1)OCO2 (stereo unspecified),–,"inconclusive: 9.28 µM [inhibitor, single point]"
COc1ccc2nc(SCC(=O)Nc3ccc(S(=O)(=O)N4CCCC4)cc3)c(C#N)cc2c1,–,"inconclusive: 0.0828 µM [inhibitor, full curve, poor fit]"
O=C(O)Cc1ccc(Oc2ncc(C(F)(F)F)cc2Cl)cc1,inactive: -7.12%,–
Cc1cccc(CN2CCN(CC(=O)O)C2=O)c1,–,"inconclusive: 0.294 µM [inhibitor, full curve, poor fit]"
CCC1CCC2(CC1)NNC(=S)NN2,–,"inconclusive: 18.5 µM [inhibitor, single point]"
